Test results: paper PMC9169357
These are yes or no findings as the source states them, for the method shown. Binding calls can cover weak binding; strength is not graded here. For some of these results: Where a sequence is shown, tags or fusion partners need not be part of it. For some of these results: In cells and extracts the contact can be indirect.

What was measured:
[1] = target: T1, peptide N#3; assay: pull-down; purified His-tagged synthesized peptides (N#1 to N#5) with purified fibronectin; both purified
T1 sequence (peptide): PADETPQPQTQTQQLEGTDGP

[2] = target: T2, peptide N#4; assay: as above
T2 sequence (peptide): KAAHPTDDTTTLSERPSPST

[3] = target: T3, dysadherin ΔC-mutant, His-tagged (UniProt Q96DB9); assay: pull-down; purified His-tagged dysadherin proteins (full length, ΔN, ΔC; from E. coli) with purified fibronectin protein; both purified
T3 sequence: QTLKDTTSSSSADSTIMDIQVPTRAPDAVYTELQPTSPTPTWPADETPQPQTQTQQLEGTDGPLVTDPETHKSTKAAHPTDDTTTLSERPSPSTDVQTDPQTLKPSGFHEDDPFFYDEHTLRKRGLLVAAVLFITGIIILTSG

[4] = target: T4, dysadherin (human (endogenous in SW480)) (UniProt Q96DB9); assay: co-IP; exogenous fibronectin added prior to the anti-dysadherin (M53) co-IP of SW480 cells, immunoblot for fibronectin
T4 sequence: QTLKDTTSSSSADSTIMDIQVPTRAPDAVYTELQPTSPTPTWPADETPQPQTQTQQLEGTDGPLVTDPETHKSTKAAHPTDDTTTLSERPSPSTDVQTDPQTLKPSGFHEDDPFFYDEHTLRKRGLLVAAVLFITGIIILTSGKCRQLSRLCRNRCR

| Substance | binding [1] | binding [2] | binding [3] | binding [4] |
| --- | --- | --- | --- | --- |
| purified fibronectin protein | binds | binds | binds |  |
| exogenous fibronectin |  |  |  | binds |
